The entries are a selection whose mix differs from that of the whole data set. At the low end of the ranking, values are background and their order means little.
How the values were obtained:
Assay in all cases: DAPPL (digital affinity profiling via proximity ligation, sequencing)
Settings in all cases: 10 mM Tris-HCl pH 7.5, 50 mM NaCl, 1 mM DTT, 4% glycerol, room temperature, 30 min; GST-TFs on glutathione beads, 16-mer random dsDNA library, 0.1% …; high values mean tight binding; double strand, one strand shown; scale: fold enrichment (6-mer frequency, TF over GST control)
[1] = target: T1, FEV (UniProt Q99581)
T1 sequence: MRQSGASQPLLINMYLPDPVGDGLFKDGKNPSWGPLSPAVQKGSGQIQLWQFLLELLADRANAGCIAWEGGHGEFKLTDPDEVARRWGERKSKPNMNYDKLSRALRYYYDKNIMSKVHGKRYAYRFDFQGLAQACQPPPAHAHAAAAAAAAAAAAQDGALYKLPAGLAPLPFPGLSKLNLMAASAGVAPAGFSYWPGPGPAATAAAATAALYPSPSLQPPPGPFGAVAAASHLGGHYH

By UniProt entry, the sequences of proteins in these tests, tags left out. Where a name states a change or a piece, a line headed by the entry shows the natural chain unless it says otherwise.
UniProt O43186: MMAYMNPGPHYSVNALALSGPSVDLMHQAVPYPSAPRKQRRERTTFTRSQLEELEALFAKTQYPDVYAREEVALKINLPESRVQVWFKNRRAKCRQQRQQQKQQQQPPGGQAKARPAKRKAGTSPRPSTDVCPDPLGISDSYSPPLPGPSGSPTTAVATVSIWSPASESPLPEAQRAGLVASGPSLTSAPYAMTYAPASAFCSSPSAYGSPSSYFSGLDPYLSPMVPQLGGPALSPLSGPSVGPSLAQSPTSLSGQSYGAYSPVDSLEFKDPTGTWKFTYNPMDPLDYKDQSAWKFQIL

[2] = target: CRX (UniProt O43186)
[3] = target: T2, ELF5 (UniProt Q9UKW6-2)
T2 sequence: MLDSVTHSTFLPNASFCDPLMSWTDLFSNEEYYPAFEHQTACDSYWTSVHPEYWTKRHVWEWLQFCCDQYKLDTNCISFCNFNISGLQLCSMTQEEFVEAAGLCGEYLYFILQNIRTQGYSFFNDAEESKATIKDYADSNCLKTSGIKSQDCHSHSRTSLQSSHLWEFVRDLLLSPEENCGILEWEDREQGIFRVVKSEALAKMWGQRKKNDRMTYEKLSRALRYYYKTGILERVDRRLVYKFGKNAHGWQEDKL

Row | Sequence | binding signal [1] | binding signal [2] | binding signal [3]
1 | TGCGTC | 0.943 | 0.695 | 0.958
2 | CTGGTG | 0.857 | 0.782 | 0.962
3 | CGACGG | 0.937 | 0.765 | 0.981
4 | CGACCA | 1.3 | 0.938 | 1.2
5 | GTACTG | 0.995 | 0.829 | 0.986
6 | TGGGGT | 1.02 | 0.917 | 1.01
7 | AGCTAG | 0.96 | 1 | 0.966
8 | TAGACT | 0.934 | 1.27 | 0.909
9 | CAGCTC | 0.981 | 0.965 | 0.934
10 | TGAAAG | 0.999 | 0.987 | 0.908
11 | CCCACC | 1.17 | 0.909 | 1.15
12 | AACGGT | 0.901 | 0.816 | 0.981
13 | TAACGT | 0.909 | 1.16 | 0.959
14 | CCTAGG | 0.976 | 0.983 | 0.937
15 | GCCTGG | 0.884 | 0.917 | 0.951
16 | CATGTT | 0.943 | 0.884 | 0.972
17 | CTGTGT | 0.881 | 0.659 | 0.764
18 | TAAGGC | 0.899 | 1.52 | 0.953
19 | GCATCT | 0.998 | 0.962 | 0.961
20 | TAGGTA | 1 | 1.22 | 0.935

Row | Sequence | binding signal [1] | binding signal [2] | binding signal [3]
21 | TGGGCG | 0.796 | 0.661 | 0.904
22 | TCCAGA | 0.85 | 1.5 | 0.879
23 | ACGTCA | 0.989 | 0.736 | 0.957
24 | TTGGAA | 0.894 | 1.07 | 0.99
25 | TCATTG | 0.984 | 0.892 | 0.959
26 | GAAAGC | 0.893 | 0.872 | 0.879
27 | CACTGA | 0.98 | 0.819 | 0.964
28 | CCAGCA | 0.943 | 0.847 | 0.824
29 | ACGCGT | 0.955 | 0.812 | 0.952
30 | GGTTAA | 0.836 | 1.31 | 0.932
31 | TCGCTG | 0.976 | 0.856 | 0.942
32 | GGTCCA | 0.858 | 0.599 | 0.863
33 | ACATGA | 0.896 | 0.783 | 0.932
34 | TTGAAG | 0.919 | 1.03 | 0.996
35 | CCGTTC | 1.48 | 1.11 | 1.56
36 | CAAAGT | 0.943 | 0.918 | 0.97
37 | GGGTAT | 0.932 | 0.982 | 0.99
38 | CGGACC | 0.941 | 0.545 | 0.821
39 | GTGTTG | 0.892 | 0.698 | 0.924
40 | TGGTGA | 0.922 | 0.857 | 0.921

Entries 27 to 28, quoted:
Row | Sequence | binding signal [1] | binding signal [2] | binding signal [3]
27 | CACTGA | 0.98 | 0.819 | 0.964
28 | CCAGCA | 0.943 | 0.847 | 0.824

(continued)

Row | Sequence | binding signal [1] | binding signal [2] | binding signal [3]
41 | CCTGCC | 1.33 | 0.938 | 1.35
42 | GAATGG | 0.944 | 0.824 | 0.843
43 | CATATG | 0.993 | 0.812 | 0.973
44 | GACGTT | 0.913 | 0.792 | 1.01
45 | AGCACG | 0.884 | 0.749 | 0.872
46 | CCATAG | 0.854 | 0.902 | 0.932
47 | ACCGGT | 0.839 | 0.657 | 0.881
48 | GCGTAT | 0.886 | 0.913 | 0.969
49 | CTCCAG | 1.13 | 1.1 | 1.15
50 | GCCAGA | 0.715 | 0.716 | 0.64
51 | ATCACG | 0.958 | 0.995 | 1.02
52 | CGTTGG | 0.873 | 0.672 | 0.873
53 | CTAGGG | 0.876 | 0.89 | 0.835
54 | GCAAGC | 0.861 | 0.771 | 0.798
55 | GATATG | 1.08 | 0.879 | 1.14
56 | ACAAGG | 0.934 | 0.728 | 1.14
57 | AGTTTG | 0.863 | 0.773 | 0.919
58 | GGAATG | 0.84 | 0.737 | 0.842
59 | TATCAA | 0.96 | 1.21 | 0.954
60 | CAGAAG | 0.722 | 0.825 | 0.73

From publication PMC7862700
